## Percent effect of library compounds

Chains of the proteins cited; added tags and fusions are not shown. Residues count along the entry.
UniProt P9WPC5, whole entry: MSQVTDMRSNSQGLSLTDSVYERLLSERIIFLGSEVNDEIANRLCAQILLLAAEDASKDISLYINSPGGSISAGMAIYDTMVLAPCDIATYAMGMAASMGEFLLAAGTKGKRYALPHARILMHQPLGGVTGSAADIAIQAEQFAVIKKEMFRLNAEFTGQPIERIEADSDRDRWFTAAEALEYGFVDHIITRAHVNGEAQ
UniProt P9WPC3, whole entry partner: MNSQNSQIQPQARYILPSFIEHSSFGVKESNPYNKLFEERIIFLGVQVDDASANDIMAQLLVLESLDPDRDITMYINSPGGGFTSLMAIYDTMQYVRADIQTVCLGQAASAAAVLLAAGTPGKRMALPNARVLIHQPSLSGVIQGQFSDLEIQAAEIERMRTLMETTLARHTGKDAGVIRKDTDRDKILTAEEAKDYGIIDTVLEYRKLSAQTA
UniProt I6X8D2, whole entry: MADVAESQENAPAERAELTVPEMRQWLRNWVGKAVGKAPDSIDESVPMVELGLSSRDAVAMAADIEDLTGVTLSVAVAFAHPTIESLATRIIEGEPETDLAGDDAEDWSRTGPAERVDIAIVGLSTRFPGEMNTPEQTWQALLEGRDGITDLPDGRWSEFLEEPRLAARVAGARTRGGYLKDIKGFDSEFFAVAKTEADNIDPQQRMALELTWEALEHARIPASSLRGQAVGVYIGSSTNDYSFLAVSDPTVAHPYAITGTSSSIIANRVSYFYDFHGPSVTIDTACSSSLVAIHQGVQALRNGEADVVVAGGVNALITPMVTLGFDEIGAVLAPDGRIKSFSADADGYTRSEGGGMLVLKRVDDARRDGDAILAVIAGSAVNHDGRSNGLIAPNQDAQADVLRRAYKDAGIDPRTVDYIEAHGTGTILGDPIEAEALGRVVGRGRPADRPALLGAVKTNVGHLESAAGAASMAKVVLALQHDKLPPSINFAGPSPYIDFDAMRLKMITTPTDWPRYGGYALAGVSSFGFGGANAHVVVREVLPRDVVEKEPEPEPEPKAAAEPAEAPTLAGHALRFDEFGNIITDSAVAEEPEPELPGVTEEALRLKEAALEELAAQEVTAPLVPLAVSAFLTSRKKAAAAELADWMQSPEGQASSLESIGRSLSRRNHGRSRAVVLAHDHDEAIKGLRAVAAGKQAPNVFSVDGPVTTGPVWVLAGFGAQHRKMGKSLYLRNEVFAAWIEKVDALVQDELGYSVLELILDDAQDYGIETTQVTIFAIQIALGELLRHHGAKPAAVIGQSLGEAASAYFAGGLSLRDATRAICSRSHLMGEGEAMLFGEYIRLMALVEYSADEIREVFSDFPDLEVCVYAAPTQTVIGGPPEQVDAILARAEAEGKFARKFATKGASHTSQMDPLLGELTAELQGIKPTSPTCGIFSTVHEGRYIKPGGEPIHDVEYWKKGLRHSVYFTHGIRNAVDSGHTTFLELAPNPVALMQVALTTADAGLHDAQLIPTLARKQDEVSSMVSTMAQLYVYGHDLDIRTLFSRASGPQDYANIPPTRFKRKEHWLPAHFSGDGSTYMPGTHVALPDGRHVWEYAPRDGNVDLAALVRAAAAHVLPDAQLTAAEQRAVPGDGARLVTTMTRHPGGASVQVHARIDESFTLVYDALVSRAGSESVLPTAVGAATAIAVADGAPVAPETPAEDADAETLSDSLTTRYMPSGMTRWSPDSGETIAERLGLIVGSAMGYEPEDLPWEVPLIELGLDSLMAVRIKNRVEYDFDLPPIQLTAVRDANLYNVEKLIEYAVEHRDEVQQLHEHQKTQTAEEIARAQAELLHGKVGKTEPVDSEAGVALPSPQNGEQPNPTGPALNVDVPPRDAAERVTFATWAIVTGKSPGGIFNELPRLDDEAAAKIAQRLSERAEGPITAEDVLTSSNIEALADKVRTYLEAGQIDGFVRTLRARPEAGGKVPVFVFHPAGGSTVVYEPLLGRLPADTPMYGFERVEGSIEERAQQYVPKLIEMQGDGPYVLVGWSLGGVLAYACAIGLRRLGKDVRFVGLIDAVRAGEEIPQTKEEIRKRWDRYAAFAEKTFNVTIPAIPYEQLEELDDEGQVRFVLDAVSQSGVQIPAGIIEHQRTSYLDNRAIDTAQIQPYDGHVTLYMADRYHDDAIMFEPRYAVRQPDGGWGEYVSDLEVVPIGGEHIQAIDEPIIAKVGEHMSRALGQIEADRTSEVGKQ
UniProt Q8IDJ8, 1-583: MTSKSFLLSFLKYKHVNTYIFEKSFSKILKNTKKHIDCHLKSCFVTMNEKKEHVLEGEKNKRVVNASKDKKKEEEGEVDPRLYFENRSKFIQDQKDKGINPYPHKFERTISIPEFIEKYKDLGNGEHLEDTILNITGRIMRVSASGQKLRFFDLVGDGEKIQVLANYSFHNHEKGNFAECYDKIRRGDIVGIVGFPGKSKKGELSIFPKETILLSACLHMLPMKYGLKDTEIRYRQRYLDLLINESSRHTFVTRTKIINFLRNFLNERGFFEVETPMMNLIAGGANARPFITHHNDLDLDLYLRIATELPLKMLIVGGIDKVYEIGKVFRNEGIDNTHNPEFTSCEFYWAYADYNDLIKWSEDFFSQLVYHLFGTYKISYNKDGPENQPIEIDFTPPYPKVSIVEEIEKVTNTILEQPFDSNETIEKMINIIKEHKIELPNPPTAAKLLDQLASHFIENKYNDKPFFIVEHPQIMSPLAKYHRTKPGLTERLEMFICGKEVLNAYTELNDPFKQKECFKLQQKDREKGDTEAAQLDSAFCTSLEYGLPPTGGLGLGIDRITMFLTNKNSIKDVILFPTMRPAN

ClpP1P2: 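ClpP1P2, Mycobacterium tuberculosis (UniProt P9WPC5 and UniProt P9WPC3). Protease assay of ClpP1P2, read by the AMC dye that it sets free. Concentration: 50 µM. Higher reads as stronger inhibition, judged from the few compounds that gave an IC50. Most other retested compounds had strongly negative values. Size under these conditions: about 69,000 compounds, about 10 of them at 50% or above in at least one test.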
Leishmania in macrophages: 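Cell assay of Leishmania donovani living inside macrophages; the read-out is not stated. Compounds at 30 µM. Direction is inferred from retests: higher values go with stronger inhibition. About 69,000 compounds were tested under these conditions; 1.5% (about 1,000) showed 50% or more at least once.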
Pks13 thioesterase: 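Polyketide synthase Pks13, Mycobacterium tuberculosis (UniProt I6X8D2). Enzyme assay of the thioesterase domain of polyketide synthase 13; the read-out is not stated. Compounds at 30 µM. The record gives no direction; the compounds picked for IC50 retests had high values, so higher reads as stronger inhibition. Size under these conditions: about 67,000 compounds, about 300 of them at 50% or above in at least one test.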
PfKRS1: 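Lysine-tRNA ligase, Plasmodium falciparum 3D7 (UniProt Q8IDJ8). Enzyme assay of the cytosolic lysyl-tRNA synthetase in 384-well plates, read by luminescence. Compounds at 30 µM. Direction is inferred from only a few compounds that gave an IC50; most scored high, so higher reads as stronger inhibition. About 69,000 compounds were tested under these conditions; 0.071% (about 49) showed 50% or more at least once.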
Toxoplasma: 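Assay of Toxoplasma gondii numbers, read through their beta-galactosidase reporter with a colour substrate. Concentration: 10 µM. The record gives no direction; the compounds picked for IC50 retests had high values, so higher reads as fewer parasites. Of about 67,000 compounds tested this way, about 260 (0.38%) reached 50% or more in at least one test.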

Results are given as percent effect. The record does not define 0% and 100%; most values in the screen are far below 50% and negative numbers occur (in some assays of this library far below -100). This is an unselected part of the compounds tested. A dash means the value is not listed here; it may have been measured.

SMILES | ClpP1P2 | Leishmania in macrophages | Pks13 thioesterase | PfKRS1 | Toxoplasma
O=S(=O)(NCCCN1CC=CC1)c1cncc(Cl)c1 | -6.946% | -11.91% | - | -4.746% | -1.37%
Cc1cnc(N2CCc3cc(C(=O)O)c(N(C)C)nc3CC2)nc1.O=C(O)C(F)(F)F | - | 2.68% | - | - | -0.8295%
Cc1cnn(C2CN(CC(=O)NCCc3c[nH]c4ccccc34)C2)c1 | -18.63% | 12.5% | -1.559% | -0.7012% | -3.143%
O=C(NCCc1ccn(-c2ccccc2)n1)N1CCCC(CO)C1 (stereo not given) | -34.41% | 2.997% | -17.54% | 0.718% | -15.36%
CN1CCN(C(=O)c2cccc(CN3CCOCC3)c2)CC1 | -5.224% | 43.78% | 0.3651% | 3.593% | 5.456%
CC(C)NC(=O)C(C)NC(=O)N1CCN(c2ccc(Cl)cc2)CC1 (stereo not given) | -4.844% | 30.21% | -32.92% | 3.054% | -0.7208%
CN(C)Cc1noc2c1CN(C(=O)c1ccncc1)CC2 | 10.78% | - | 37.25% | -1.742% | -
O=C(O)C(F)(F)F.O=C(O)C(F)(F)F.[H][C@@]12CN(Cc3ccco3)C[C@]1([H])[C@H](OC)CCN2Cc1c(C)noc1C | - | 9.922% | - | - | 15%
CN(CC(=O)N1CCCC1Cn1cccn1)C1CC1 (stereo not given) | -0.2481% | 38.19% | -38.05% | 7.478% | -
CNC(=O)CN1CCOCC12CCN(Cc1ccncc1)CC2.O=C(O)C(F)(F)F.O=C(O)C(F)(F)F | - | -10.45% | - | - | -7.862%
CN1CC(=O)N(c2cccc(F)c2)CC12CCN(CC1CC1)C2.O=C(O)C(F)(F)F.O=C(O)C(F)(F)F (stereo not given) | - | 31.82% | - | - | 7.073%
c1cnc(N2CCO[C@H]3CN(CC4CCOCC4)C[C@H]32)nc1 | -5.408% | - | -22.15% | 4.357% | -
[H][C@@]12CS(=O)(=O)C[C@]1([H])N(C(=O)CSc1ccccn1)CCN2CCO | - | 17.46% | - | - | 6.687%
CCC(=O)N1CCN(Cc2cnc(C)nc2)[C@H]2CS(=O)(=O)C[C@H]21 | 5.218% | - | -6.933% | -1.426% | -
CCn1cc(CN2C[C@H]3CC[C@@H]2CN(C(=O)c2ccncc2)C3)cn1 | 9.063% | - | -7.317% | 0.5729% | -
Cc1nnc(CN2CCN(CC(O)c3cccc(F)c3)CC2)n1C (stereo not given) | 4.867% | 0.7769% | -16.98% | 4.917% | -9.037%
Cn1cc(C[C@H]2[C@@H](O)CCN2C(=O)c2ccc[nH]2)cn1 | 2.357% | -2.419% | - | 5.539% | -5.667%
Cc1c(F)cc(C(=O)O)cc1S(=O)(=O)Nc1ccc2c(c1)OCCO2 | 10.35% | 1.55% | -13.43% | 5.814% | 10%
Cc1nc(CN2C[C@@H]3CN(C(=O)c4ccncc4)C[C@@H]3C2)cs1 | 7.25% | - | -17.31% | 2.189% | -
Cn1cc(CCCN2CCN(C(=O)c3cccc(O)c3)CC2)cn1 | -5.254% | 17.36% | - | 3.013% | -2.438%
Cc1ccc(C(=O)N(C)Cc2nccn2CC(F)(F)F)cn1 | 3.919% | 7.883% | -7.755% | 2.58% | -8.789%
Cc1noc(CS(=O)(=O)C(C)C(=O)N(C)c2ccccc2)n1 (stereo not given) | -2.773% | 12.83% | 12.94% | 3.113% | -1.296%
O=C(C[C@H]1[C@H]2CN(C(=O)CO)C[C@@H]12)Nc1cccnc1 | 10.66% | - | -10.3% | 0.8442% | -
COc1ccccc1OCCC(=O)N1CCCC1Cn1cc(C)cn1 (stereo not given) | 6.479% | -22.71% | -16.59% | 9.362% | -5.139%
COCCNC(=O)NC1CCN(c2cnn(C)c2)C1 (stereo not given) | -7.826% | 32.62% | -12.73% | 3.252% | -7.116%
CSCC[C@H](NC(=O)CCn1ccc2c(Br)cccc21)C(=O)O | -6.708% | -8.642% | -2.621% | -0.1212% | 6.527%
CCn1ncc2c1C(COC)N(C(=O)c1ccsc1)CC2 (stereo not given) | -1.251% | - | -3.853% | 2.908% | -
C1CCC(N2CCCN(c3nc(C4CC4)no3)CC2)C1 | -11.32% | -19.19% | -23.95% | -0.6351% | -6.026%
COCC1CN(C(=O)Cc2ccsc2)Cc2c1cnn2C (stereo not given) | -5.057% | -50.07% | -40.8% | -1.108% | -8.955%
COCCN1C[C@@H]2CCCO[C@@H]2[C@H](N(C)Cc2ccco2)C1 | 12.7% | - | -24.61% | -0.7745% | -
O=C(CCn1ccccc1=O)N1CCN(Cc2cccc(Cl)c2)CC1 | -2.105% | 31.22% | -10.49% | 2.55% | -6.398%
COCC(=O)N1CCC(c2cc(-c3ccc(C)cc3)n[nH]2)C1 (stereo not given) | 19.3% | 4.743% | -12.53% | -1.302% | -2.535%
N#CC1(NC(=O)COC(=O)Cn2cccn2)CCCC1 | 7.282% | 17.58% | -13.64% | 7.423% | -3.228%
O=C1CCCN1Cc1ncn2c1CN(C(=O)c1cccc(F)c1)CCC2 | 11.89% | 5.985% | -3.339% | 1.1% | 3.775%

Once more, the final 4:

SMILES,ClpP1P2,Leishmania in macrophages,Pks13 thioesterase,PfKRS1,Toxoplasma
O=C(CCn1ccccc1=O)N1CCN(Cc2cccc(Cl)c2)CC1,-2.105%,31.22%,-10.49%,2.55%,-6.398%
COCC(=O)N1CCC(c2cc(-c3ccc(C)cc3)n[nH]2)C1 (stereo not given),19.3%,4.743%,-12.53%,-1.302%,-2.535%
N#CC1(NC(=O)COC(=O)Cn2cccn2)CCCC1,7.282%,17.58%,-13.64%,7.423%,-3.228%
O=C1CCCN1Cc1ncn2c1CN(C(=O)c1cccc(F)c1)CCC2,11.89%,5.985%,-3.339%,1.1%,3.775%

Data taken from ChEMBL document CHEMBL3988442, “University of Dundee, Small-Polar-MMV Screening Library” (2021).